{"source": "PubChem BioAssay AID1259308 (NCATS, 2017)", "test": "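Knock-downs that increase output of a recombinant reporter protein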 (primary screen)", "cell system": "human HEK293 embryonic kidney cells stably expressing firefly luciferase (HEK-CMV-Luc2-Hygro)", "knock-down reagent": "single siRNA against human genes, 0.8 pmol siRNA per well", "time to read-out": "72 h", "measured": "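Reporter luminescence and viable-cell signal on separate replicate plates, given as percent of non-targeting control and median/MAD z-scores, plus per-cell luciferase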", "direction": "total luciferase, z-score and total luciferase, % of control: higher = more reporter protein produced", "call rule": "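Active when the median/MAD z-score for overall luciferase is greater than 3; a gene was taken forward for validation with new siRNAs if at least two of its three siRNAs passed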", "calls": "active = raised luciferase; inactive = no rise", "note": "The whole screen tested about 59,000 reagents; below is a part drawn at random. In the full data, about 1,510 (2.6%) got an active call. 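Calls use total luciferase alone and ignore viability, so some active siRNAs may act by altering cell number.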 Unmarked entries are inactive. The numbers tell different reagents against one gene apart. Not all columns of the deposit are shown."}
{"target gene":"RTP2 (receptor transporter protein 2)","reagent no.":1,"total luciferase, z-score":0.638,"total luciferase, % of control":94.6}
{"target gene":"RTP2 (receptor transporter protein 2)","reagent no.":2,"total luciferase, z-score":-0.0304,"total luciferase, % of control":81.3}
{"target gene":"RTP2 (receptor transporter protein 2)","reagent no.":3,"total luciferase, z-score":-0.115,"total luciferase, % of control":79.6}
{"target gene":"KLHL21 (kelch like family member 21)","reagent no.":1,"total luciferase, z-score":-0.38,"total luciferase, % of control":74.3}
{"target gene":"KLHL21 (kelch like family member 21)","reagent no.":2,"total luciferase, z-score":-0.0479,"total luciferase, % of control":80.9}
{"target gene":"KLHL21 (kelch like family member 21)","reagent no.":3,"total luciferase, z-score":-0.234,"total luciferase, % of control":77.2}
{"target gene":"ARLN (allregulin)","reagent no.":1,"total luciferase, z-score":1.02,"total luciferase, % of control":102}
{"target gene":"ARLN (allregulin)","reagent no.":2,"total luciferase, z-score":-0.642,"total luciferase, % of control":69.1}
{"target gene":"ARLN (allregulin)","reagent no.":3,"total luciferase, z-score":-0.00299,"total luciferase, % of control":81.8}
{"target gene":"FOXF1 (forkhead box F1)","reagent no.":1,"total luciferase, z-score":-1.48,"total luciferase, % of control":52.5}
{"target gene":"FOXF1 (forkhead box F1)","reagent no.":2,"total luciferase, z-score":1.64,"total luciferase, % of control":114}
{"target gene":"FOXF1 (forkhead box F1)","reagent no.":3,"total luciferase, z-score":-0.768,"total luciferase, % of control":66.6}
{"target gene":"REEP2 (receptor accessory protein 2)","reagent no.":1,"total luciferase, z-score":-0.0872,"total luciferase, % of control":80.2}
{"target gene":"REEP2 (receptor accessory protein 2)","reagent no.":2,"total luciferase, z-score":-0.141,"total luciferase, % of control":79.1}
{"target gene":"REEP2 (receptor accessory protein 2)","reagent no.":3,"total luciferase, z-score":0.519,"total luciferase, % of control":92.2}
{"target gene":"CDC42EP3 (CDC42 effector protein 3)","reagent no.":1,"total luciferase, z-score":1.09,"total luciferase, % of control":104}
{"target gene":"CDC42EP3 (CDC42 effector protein 3)","reagent no.":2,"total luciferase, z-score":0.894,"total luciferase, % of control":99.7}
{"target gene":"CDC42EP3 (CDC42 effector protein 3)","reagent no.":3,"total luciferase, z-score":-0.607,"total luciferase, % of control":69.8}

Copied from the list:
For “total luciferase, z-score”, FOXF1 (forkhead box F1) #1 is entered as -1.48
ARLN (allregulin) #3, total luciferase, z-score: -0.00299
KLHL21 (kelch like family member 21) #1, total luciferase, z-score → -0.38
CDC42EP3 (CDC42 effector protein 3) #1, total luciferase, % of control → 104

The list goes on:
{"target gene":"CSMD2 (CUB and Sushi multiple domains 2)","reagent no.":1,"total luciferase, z-score":-0.879,"total luciferase, % of control":64.4}
{"target gene":"CSMD2 (CUB and Sushi multiple domains 2)","reagent no.":2,"total luciferase, z-score":1.25,"total luciferase, % of control":107}
{"target gene":"CSMD2 (CUB and Sushi multiple domains 2)","reagent no.":3,"total luciferase, z-score":0.0183,"total luciferase, % of control":82.3}
{"target gene":"DCAF6 (DDB1 and CUL4 associated factor 6)","reagent no.":1,"total luciferase, z-score":2.3,"total luciferase, % of control":128}
{"target gene":"DCAF6 (DDB1 and CUL4 associated factor 6)","reagent no.":2,"total luciferase, z-score":0.861,"total luciferase, % of control":99}
{"target gene":"DCAF6 (DDB1 and CUL4 associated factor 6)","reagent no.":3,"total luciferase, z-score":0.0854,"total luciferase, % of control":83.6}
{"target gene":"FOXN3 (forkhead box N3)","reagent no.":1,"total luciferase, z-score":-0.696,"total luciferase, % of control":68}
{"target gene":"FOXN3 (forkhead box N3)","reagent no.":2,"total luciferase, z-score":0.794,"total luciferase, % of control":97.7}
{"target gene":"FOXN3 (forkhead box N3)","reagent no.":3,"total luciferase, z-score":0.293,"total luciferase, % of control":87.7}
{"target gene":"AKT1 (AKT serine/threonine kinase 1)","reagent no.":1,"total luciferase, z-score":-1.23,"total luciferase, % of control":57.5}
{"target gene":"AKT1 (AKT serine/threonine kinase 1)","reagent no.":2,"total luciferase, z-score":2.11,"total luciferase, % of control":124}
{"target gene":"AKT1 (AKT serine/threonine kinase 1)","reagent no.":3,"total luciferase, z-score":-0.35,"total luciferase, % of control":74.9}
{"target gene":"CCDC9B (coiled-coil domain containing 9B)","reagent no.":1,"total luciferase, z-score":-0.887,"total luciferase, % of control":64.2}
{"target gene":"CCDC9B (coiled-coil domain containing 9B)","reagent no.":2,"total luciferase, z-score":-0.874,"total luciferase, % of control":64.5}
{"target gene":"CCDC9B (coiled-coil domain containing 9B)","reagent no.":3,"total luciferase, z-score":-3.33,"total luciferase, % of control":15.7}
